# According to publication doi:10.1101/855098:
# Protein sequences, listed by entry. Tags and fused reporters are not part of them. Lines headed by an entry give the natural chain unless they say otherwise; changes in a name come on top.
# UniProt Q9SND6: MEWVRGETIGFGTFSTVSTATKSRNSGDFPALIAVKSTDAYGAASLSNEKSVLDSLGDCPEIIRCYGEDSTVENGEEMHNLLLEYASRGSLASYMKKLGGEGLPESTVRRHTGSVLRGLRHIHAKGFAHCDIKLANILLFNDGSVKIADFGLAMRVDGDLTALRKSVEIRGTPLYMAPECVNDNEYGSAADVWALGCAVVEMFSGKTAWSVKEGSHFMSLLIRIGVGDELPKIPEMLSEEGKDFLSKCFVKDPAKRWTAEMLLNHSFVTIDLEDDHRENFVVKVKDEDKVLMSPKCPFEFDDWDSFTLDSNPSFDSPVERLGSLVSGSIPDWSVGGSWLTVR
# UniProt O80888: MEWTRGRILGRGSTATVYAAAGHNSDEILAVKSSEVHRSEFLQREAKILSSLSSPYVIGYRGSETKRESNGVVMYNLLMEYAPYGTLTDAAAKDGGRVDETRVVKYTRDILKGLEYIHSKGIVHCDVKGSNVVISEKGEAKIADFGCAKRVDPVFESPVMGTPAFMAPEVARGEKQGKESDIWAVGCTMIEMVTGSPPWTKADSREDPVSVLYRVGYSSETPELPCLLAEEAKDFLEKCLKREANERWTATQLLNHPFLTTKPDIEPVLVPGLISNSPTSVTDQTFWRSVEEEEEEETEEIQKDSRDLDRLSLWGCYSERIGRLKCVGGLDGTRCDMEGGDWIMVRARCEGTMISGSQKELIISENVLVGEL
# These are yes or no findings as the source states them, for the method shown. Binding calls can cover weak binding; strength is not graded here.
# Molecular target: T1, MKK3 (Arabidopsis) (UniProt O80396)
# T1 sequence: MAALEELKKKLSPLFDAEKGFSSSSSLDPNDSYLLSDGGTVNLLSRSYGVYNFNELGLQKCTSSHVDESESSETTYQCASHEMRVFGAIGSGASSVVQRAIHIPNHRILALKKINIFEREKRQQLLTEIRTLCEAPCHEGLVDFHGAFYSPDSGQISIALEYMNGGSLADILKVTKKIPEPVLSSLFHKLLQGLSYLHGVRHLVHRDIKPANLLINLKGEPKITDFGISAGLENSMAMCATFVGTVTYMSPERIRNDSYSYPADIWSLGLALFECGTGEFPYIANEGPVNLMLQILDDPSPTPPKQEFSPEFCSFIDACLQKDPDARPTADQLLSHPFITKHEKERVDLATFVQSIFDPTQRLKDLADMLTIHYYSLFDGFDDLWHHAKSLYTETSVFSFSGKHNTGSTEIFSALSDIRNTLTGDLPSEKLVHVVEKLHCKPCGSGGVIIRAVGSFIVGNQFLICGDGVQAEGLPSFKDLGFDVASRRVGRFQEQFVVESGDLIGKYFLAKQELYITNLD
# Assay: two-hybrid
row,binding,Substance
1,binds,MAP3K20 (from UniProt Q9SND6) (enzyme)
2,binds,C-terminal truncated form of MAP3K14 (missing its 116 C-terminal amino acids) (Arabidopsis) (domain or fragment)
3,binds,MAP3K15 (Arabidopsis) (enzyme)

# Further lines, the substance ahead of its results:
row,Substance,binding
1,C-terminal truncated form of MAP3K13 (missing its 143 C-terminal amino acids) (Arabidopsis) (domain or fragment),binds
2,MAP3K19 (from UniProt Q9FHA5) (enzyme),binds
3,MAP3K17 (from UniProt O80888) (enzyme),binds
4,MAP3K16 (from UniProt F4JVS7) (enzyme),binds
